# Library screen at single concentrations

The values are deposited in ChEMBL (CHEMBL3988442, “University of Dundee, Small-Polar-MMV Screening Library” (2021)).

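Whole-cell growth test on Mycobacterium tuberculosis, read after 4 days in a medium based on cholesterol and the lipid DPPC; the read-out is not stated. Compounds at 50 µM. The record gives no direction; compounds that gave an IC50 in retests scored well above the rest, so higher reads as more growth inhibition. Size under these conditions: about 69,000 compounds, about 370 of them at 50% or above in at least one test.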

Each number is a percent effect as filed.
The record does not define 0% and 100%; most values in the screen are far below 50% and negative numbers occur (in some assays of this library far below -100).
This is an unselected part of the compounds tested.
Two or more numbers in one place are separate tests of the same structure; such repeats can differ widely.

compound	Percent Effect
O=C(O)C(F)(F)F.[H][C@@]12CN(Cc3nccn3C)C[C@]1([H])OCCN2c1ccnc(N(C)C)n1	15.47%
NC(=O)NC(=O)CNC1(c2ccc(Cl)cc2)CCC1	-9.465%
CCn1ccnc1CN1CCN(Cc2ccc(C#N)cc2)CC1	-21.22%
COc1cccc(CN(C)C(C)C(=O)Nc2nc(C)c(C)s2)c1 (centres undefined)	3.61%
COc1cccc(-c2cc(NCc3nccn3C)n(C)n2)c1	16.46% & 10.64%
CCOCC1CN(C(=O)c2cnccn2)Cc2cnn(CC3CC3)c21.O=C(O)C(F)(F)F (centres undefined)	-13.94%
Cc1cc(CN(C)C(=O)NC2CCN(C3CC3)CC2)no1	-0.7856%
COC(=O)c1ccc(CNC(=O)Nc2ccc(=O)n(C)c2)cc1	9.679%
NC(=O)C1(c2cnccn2)CCCN1Cc1ccc(Cl)cc1 (centres undefined)	6.68%
Cc1nnc(C(C)N2CCN(Cc3ccc4c(c3)OCO4)CC2)o1 (centres undefined)	-21.87%
N#Cc1ccc(NCCNc2ccc(C(F)(F)F)cn2)nc1	32.71%
O=C(O)C1(Cc2ccccc2Cl)CCN(c2ncccc2F)CC1	0.8179%
[H][C@@]12CN(Cc3cccc(OC4CCCC4)c3)C[C@]1(C(=O)O)CNC2=O	-1.245%
CCN(CC)S(=O)(=O)N(CC)Cc1ccc2c(c1)OCCO2	2.511%
O=C(O)C(F)(F)F.[H][C@@]12CO[C@@H](CNS(C)(=O)=O)[C@]1([H])CCN(C(=O)c1ccccn1)C2	-1.555%
O=C(O)C(F)(F)F.O=C(O)C(F)(F)F.[H][C@]12CCC[C@@]1(COc1ccccn1)CN(c1ncc(F)cn1)C2	12.01%
CC(CN1CCOCC1)OC(=O)c1ccccc1Cl.Cl (centres undefined)	-9.756%
CC(=O)c1cc(C(=O)NC2(c3ccc(Br)cc3)CC2)n(C)c1	9.718%
Cc1c[nH]nc1C1CCCCN1C(=O)CC1(O)CCCCC1 (centres undefined)	-16.08%
C=Cc1ccc(CSc2nc3c(c(=O)[nH]2)CN(CCC)CC3)cc1	-6.154%
CC(C)c1nc(CN(C)C2CCN(Cc3nnc(C4CC4)o3)C2)no1 (centres undefined)	-30.51%
CCOc1cccc2c1OCC(C(=O)NS(=O)(=O)c1ccc(Br)s1)=C2	-14.94%
CCc1ccc(S(=O)(=O)N2CCN(CCn3ccnc3)CC2)cc1	-21.73%
CN(C)CCN(Cc1ccccc1)C(=O)CN1CCCNC1=O	-4.48%
CCOCCn1c(=O)n(CCC=C(C)C)c2cc(C(=O)O)cnc21	-5.328% & 2.293%
CC(C(=O)N1CCN(Cc2ccc3c(c2)OCO3)CC1)n1ccnc1 (centres undefined)	6.054%
CCCn1nc(-c2nc(Cc3ccc(OC)cc3)no2)ccc1=O	11.38%
Fc1ccc(CNCCn2cccn2)c(F)c1	-25.8%
COCCN1CC(c2cc(O)nc(NC(C)C)n2)CC1=O (centres undefined)	10.39%